Data published in patent publication US20060057652A1.
These are yes or no findings as the source states them, for the method shown. In cells and extracts the contact can be indirect. Some results given as binding are weak or reduced against the parent protein; the word gives no strength. For some of these results: Sequences can lack the tags named with a protein.

The chains behind the UniProt entries cited, without tags or fusion partners.
UniProt Q9H1A4: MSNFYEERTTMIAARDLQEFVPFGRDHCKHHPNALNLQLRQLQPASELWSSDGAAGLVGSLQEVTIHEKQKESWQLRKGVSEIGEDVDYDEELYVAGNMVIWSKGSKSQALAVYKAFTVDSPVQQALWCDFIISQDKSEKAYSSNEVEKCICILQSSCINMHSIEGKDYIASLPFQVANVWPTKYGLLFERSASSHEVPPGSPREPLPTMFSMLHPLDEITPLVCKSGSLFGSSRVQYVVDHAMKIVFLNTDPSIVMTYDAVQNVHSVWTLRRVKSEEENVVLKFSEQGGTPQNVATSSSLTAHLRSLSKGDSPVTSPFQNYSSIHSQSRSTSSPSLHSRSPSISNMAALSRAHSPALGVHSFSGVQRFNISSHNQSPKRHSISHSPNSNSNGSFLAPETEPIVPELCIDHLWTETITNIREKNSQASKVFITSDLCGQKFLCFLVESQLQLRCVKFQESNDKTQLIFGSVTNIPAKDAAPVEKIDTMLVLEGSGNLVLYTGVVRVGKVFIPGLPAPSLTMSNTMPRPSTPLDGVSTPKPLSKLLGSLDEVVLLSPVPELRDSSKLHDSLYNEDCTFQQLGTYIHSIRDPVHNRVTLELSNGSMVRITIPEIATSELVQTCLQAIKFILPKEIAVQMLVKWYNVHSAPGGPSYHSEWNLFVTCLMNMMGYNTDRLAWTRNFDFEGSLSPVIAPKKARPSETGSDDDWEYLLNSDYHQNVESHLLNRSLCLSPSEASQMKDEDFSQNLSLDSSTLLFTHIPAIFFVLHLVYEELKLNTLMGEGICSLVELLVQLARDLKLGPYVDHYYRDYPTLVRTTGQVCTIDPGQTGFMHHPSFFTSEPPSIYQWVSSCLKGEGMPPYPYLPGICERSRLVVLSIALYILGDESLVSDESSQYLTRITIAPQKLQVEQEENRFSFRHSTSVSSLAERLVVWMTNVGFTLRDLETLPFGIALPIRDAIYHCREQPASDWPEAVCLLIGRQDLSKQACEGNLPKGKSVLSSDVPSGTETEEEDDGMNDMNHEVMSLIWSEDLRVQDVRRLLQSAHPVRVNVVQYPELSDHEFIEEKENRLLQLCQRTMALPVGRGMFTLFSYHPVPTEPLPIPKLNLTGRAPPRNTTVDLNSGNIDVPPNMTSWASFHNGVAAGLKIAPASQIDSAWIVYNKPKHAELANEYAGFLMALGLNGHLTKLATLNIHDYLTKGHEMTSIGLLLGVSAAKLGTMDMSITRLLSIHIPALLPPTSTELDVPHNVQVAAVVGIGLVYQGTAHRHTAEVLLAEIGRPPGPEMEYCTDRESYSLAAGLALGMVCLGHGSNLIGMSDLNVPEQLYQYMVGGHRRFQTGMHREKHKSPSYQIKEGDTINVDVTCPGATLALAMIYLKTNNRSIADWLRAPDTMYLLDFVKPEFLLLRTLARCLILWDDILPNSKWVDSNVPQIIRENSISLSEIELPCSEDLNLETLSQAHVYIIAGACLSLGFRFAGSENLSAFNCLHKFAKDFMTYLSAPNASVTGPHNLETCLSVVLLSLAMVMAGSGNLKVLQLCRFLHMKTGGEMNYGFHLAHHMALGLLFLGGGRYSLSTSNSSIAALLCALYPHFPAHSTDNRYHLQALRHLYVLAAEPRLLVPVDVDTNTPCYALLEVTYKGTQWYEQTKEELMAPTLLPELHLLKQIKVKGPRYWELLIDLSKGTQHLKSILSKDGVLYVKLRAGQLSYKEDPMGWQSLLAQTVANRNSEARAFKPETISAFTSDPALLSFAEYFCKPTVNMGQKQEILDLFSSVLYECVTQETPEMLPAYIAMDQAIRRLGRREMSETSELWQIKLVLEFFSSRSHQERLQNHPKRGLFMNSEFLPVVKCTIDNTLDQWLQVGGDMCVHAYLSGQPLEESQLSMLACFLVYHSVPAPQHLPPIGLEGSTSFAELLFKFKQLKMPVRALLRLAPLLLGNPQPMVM

Tests used:
[1] = target: anaphase promoting complex subunit 1 (APC1) (Homo sapiens) (UniProt Q9H1A4); experiment: anti-FLAG co-immunoprecipitation of FLAG-Apoptin deletion mutants from H1299 cells, APC1 immunoblot
[2] = target: T1, FLAG-tagged wild type Apoptin expressed from adenovirus Ad-Apwt (Chicken anemia virus) (UniProt Q99152); experiment: co-immunoprecipitation on anti-FLAG beads from H1299 cells (multimerization)
T1 sequence: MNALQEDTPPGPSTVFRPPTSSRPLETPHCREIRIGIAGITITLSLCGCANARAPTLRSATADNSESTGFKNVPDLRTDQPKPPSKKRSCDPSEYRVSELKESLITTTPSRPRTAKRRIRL

| Substance | binding [1] | binding [2] |
| --- | --- | --- |
| FLAG-tagged Apoptin deletion mutant Ap(42-121) (from UniProt Q99152 42-121) | binds | – |
| FLAG-tagged Apoptin deletion mutant Ap(82-121) (from UniProt Q99152 82-121) | binds | – |
| GFP-Ap(1-48) (from UniProt P54094 1-48) | – | binds |
| GFP-Ap(1-88) (from UniProt P54094 1-88) | – | binds |
